PubChem BioAssay AID1224830, NIAID, 2016

Screen: 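Host factors that control LPS-induced TNF expression in human macrophages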 (primary screen)
Cell system: human THP-1 monocytic leukaemia cells, TNF dual-luciferase reporter clone, PMA-differentiated to macrophage-like cells
Reagents: siRNA pool against human genes, 50 nM
Time to read-out: LPS for 4 h, given about 3 days after siRNA transfection
Conditions: bacterial LPS (TLR4 ligand), 10 ng/ml
Measured: 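Ratio of firefly to renilla light, scaled to the plate median and expressed as a robust z-score per replicate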
Reading the numbers: TNF reporter robust z-score: higher = stronger TNF reporter response to LPS
Active means: 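Each well counts as active if its z-score is over 2.8 or under -1.5; controls are left without a call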
The deposit covers about 18,000 reagents; shown is an unselected part. In the full data, about 2,900 (16%) were called active. 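Calls are made per well; low scores hint the gene aids the LPS response, high scores that it dampens it.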 Unmarked entries are inactive. Repeated entries: four replicate wells of each siRNA pool.

gene | TNF reporter robust z-score
SCAMP4 | -0.73
SCAMP4 | -0.69
SCAMP4 | -1.14
SCAMP4 | -0.95
OR51S1 (olfactory receptor family 51 subfamily S member 1) | -0.08
OR51S1 (olfactory receptor family 51 subfamily S member 1) | -0.21
OR51S1 (olfactory receptor family 51 subfamily S member 1) | 0.49
OR51S1 (olfactory receptor family 51 subfamily S member 1) | 0.07
ARL10 (ARF like GTPase 10) | 2.5
ARL10 (ARF like GTPase 10) | 1.37
ARL10 (ARF like GTPase 10) | 0.32
ARL10 (ARF like GTPase 10) | -0.07
POLR1B (RNA polymerase I subunit B) | -0.22
POLR1B (RNA polymerase I subunit B) | -0.12
POLR1B (RNA polymerase I subunit B) | -0.06
POLR1B (RNA polymerase I subunit B) | -0.34
LY6G5C (lymphocyte antigen 6 family member G5C) | 2.27
LY6G5C (lymphocyte antigen 6 family member G5C) | 2.59
LY6G5C (lymphocyte antigen 6 family member G5C) | 1.37
LY6G5C (lymphocyte antigen 6 family member G5C) | 1.95
ATXN10 (ataxin 10) | -1.61 (active)
ATXN10 (ataxin 10) | 0.21
ATXN10 (ataxin 10) | -1.06
ATXN10 (ataxin 10) | -0.12
ASB7 (ankyrin repeat and SOCS box containing 7) | -0.08
ASB7 (ankyrin repeat and SOCS box containing 7) | 0.25
ASB7 (ankyrin repeat and SOCS box containing 7) | 0.59
ASB7 (ankyrin repeat and SOCS box containing 7) | -2.26 (active)
PLEKHG4 (pleckstrin homology and RhoGEF domain containing G4) | -1.32
PLEKHG4 (pleckstrin homology and RhoGEF domain containing G4) | 0.59
PLEKHG4 (pleckstrin homology and RhoGEF domain containing G4) | -0.78
PLEKHG4 (pleckstrin homology and RhoGEF domain containing G4) | 0.1
PANX1 (pannexin 1) | 0.33
PANX1 (pannexin 1) | -0.05
PANX1 (pannexin 1) | 1.55
PANX1 (pannexin 1) | 0.57
AKR1B1 (aldo-keto reductase family 1 member B) | 6.48 (active)
AKR1B1 (aldo-keto reductase family 1 member B) | -0.16
AKR1B1 (aldo-keto reductase family 1 member B) | 0.29
AKR1B1 (aldo-keto reductase family 1 member B) | 1.31
IGSF11 (immunoglobulin superfamily member 11) | 1.69
IGSF11 (immunoglobulin superfamily member 11) | 1.46
IGSF11 (immunoglobulin superfamily member 11) | 1.49
IGSF11 (immunoglobulin superfamily member 11) | 0.26
MTURN (maturin, neural progenitor differentiation regulator homolog) | 0.68
MTURN (maturin, neural progenitor differentiation regulator homolog) | 1.58
MTURN (maturin, neural progenitor differentiation regulator homolog) | -0.26
MTURN (maturin, neural progenitor differentiation regulator homolog) | 0.39

No new results follow: an excerpt of the list.
gene | TNF reporter robust z-score
ASB7 (ankyrin repeat and SOCS box containing 7) | -0.08
ASB7 (ankyrin repeat and SOCS box containing 7) | 0.25
ASB7 (ankyrin repeat and SOCS box containing 7) | 0.59
ASB7 (ankyrin repeat and SOCS box containing 7) | -2.26 (active)
PLEKHG4 (pleckstrin homology and RhoGEF domain containing G4) | -1.32
PLEKHG4 (pleckstrin homology and RhoGEF domain containing G4) | 0.59
PLEKHG4 (pleckstrin homology and RhoGEF domain containing G4) | -0.78
PLEKHG4 (pleckstrin homology and RhoGEF domain containing G4) | 0.1
